The supplement of paper PMC9015667
Where a name gives a salt, the structure may show the parent alone. The list shows a part of the results. Many values rest on one well or one pass, so single values are uncertain.

Tests used:
Test in all cases: reduction in cell viability relative to untreated/vehicle; higher = more growth inhibition
Conditions in all cases: 200 nM; 72 h
M229P = tested on: M229P (parental melanoma line)
M229R = tested on: M229R (matched melanoma line resistant to BRAF inhibitors)
M238P = tested on: M238P (parental melanoma line)
M238R = tested on: M238R (matched melanoma line resistant to BRAF inhibitors)
M249P = tested on: M249P (parental melanoma line)
M249R = tested on: M249R (matched melanoma line resistant to BRAF inhibitors)
UACC62P = tested on: UACC62P (parental melanoma line)
UACC62R = tested on: UACC62R (matched melanoma line resistant to BRAF inhibitors)

| SMILES | reduction in cell viability (M229P) [%] | reduction in cell viability (M229R) [%] | reduction in cell viability (M238P) [%] | reduction in cell viability (M238R) [%] | reduction in cell viability (M249P) [%] | reduction in cell viability (M249R) [%] | reduction in cell viability (UACC62P) [%] | reduction in cell viability (UACC62R) [%] |
| --- | --- | --- | --- | --- | --- | --- | --- | --- |
| CCC1(c2ccc(N)cc2)CCC(=O)NC1=O (configuration not stated) [Aminoglutethimide] | < 0 | < 0 | < 0 | < 0 | < 0 | < 0 | < 0 | < 0 |
| C=C[C@H]1CN2CC[C@H]1C[C@@H]2[C@@H](O)c1ccnc2ccccc12 [Cinchonine dihydrochloride] | < 0 | < 0 | < 0 | < 0 | < 0 | < 0 | < 0 | < 0 |
| CC(C)[C@H]1C(=O)N[C@H](CO)Cc2c[nH]c3cccc(c23)N1C [(-)-Indolactam V] | 11.6 | 27.5 | 36.9 | 45.7 | 9.33 | 0.43 | 21.5 | 68.3 |
| Cc1cccc(C)c1NC(=O)CN1CCCC1=O [Nefiracetam] | < 0 | < 0 | < 0 | < 0 | < 0 | < 0 | < 0 | < 0 |
| CC[C@H]1CN2CCc3cc(OC)c(OC)cc3[C@@H]2C[C@@H]1C[C@H]1NCCc2cc(OC)c(OC)cc21 [Emetine] | 90.1 | 68.5 | 87 | 87.4 | 96 | 95 | 83.2 | 82.6 |
| CC1=NN=C(c2ccc(N)cc2)c2cc3c(cc2C1)OCO3 | < 0 | < 0 | < 0 | < 0 | < 0 | < 0 | 26.1 | 3.83 |
| CC(C)(C)[C@]1(O)CC2OC(=O)CC23C(=O)OC2OC(=O)[C@H](O)C231 (some centres not stated) [Bilobalide] | < 0 | < 0 | < 0 | < 0 | < 0 | < 0 | < 0 | < 0 |
| CNCC(O)c1ccc(O)cc1 (configuration not stated) [Synephrine] | < 0 | < 0 | < 0 | < 0 | < 0 | < 0 | < 0 | < 0 |
| CC[C@@H]1/C=C/C=C/C[C@H](C)[C@H](O)[C@](C)(O)C(=O)[C@H](C)[C@@H](O)[C@H](C)C(=O)[C@H](C)[C@@H](O)[C@H](C)/C=C/C(=O)O[C@H]2[C@@H](C)[C@@H](CC1)O[C@@]1(CC[C@@H](C)[C@@H](C[C@H](C)O)O1)[C@@H]2C [Oligomycin A] | < 0 | 1.15 | 8.62 | < 0 | < 0 | 8.63 | < 0 | < 0 |
| CC(N[C@H]1C[C@@H]1c1ccccc1)c1ccc2c(c1)OCCO2 (some centres not stated) | < 0 | < 0 | < 0 | < 0 | 0.12 | < 0 | < 0 | < 0 |
| O=c1[nH]c2ccc(Cl)cc2c(N[C@@H]2CN3CCC2CC3)c1-c1nc2ccccc2[nH]1 | 48.1 | 80.5 | 68.9 | 47.4 | < 0 | 12.4 | 11.1 | 65 |
| CC(C)N(CCNC(=O)CN1CCCC1=O)C(C)C [Pramiracetam hydrochloride] | < 0 | < 0 | < 0 | < 0 | < 0 | 5.82 | < 0 | < 0 |
| CCN1CCN(C(=O)Cc2ccc(Nc3ncc(F)c(Nc4ccc(C(=O)Nc5ccccc5Cl)cc4)n3)cc2)CC1 [Aurora A Inhibitor I] | 12.6 | 16.1 | 19.2 | < 0 | 2.86 | < 0 | 38 | 74.2 |
| Fc1ccc(C(OCCN2CCN(CCCc3ccccc3)CC2)c2ccc(F)cc2)cc1 | < 0 | < 0 | < 0 | < 0 | < 0 | 13.5 | < 0 | < 0 |

A few values from the list:
reduction in cell viability (UACC62P) [%] with CCC1(c2ccc(N)cc2)CCC(=O)NC1=O (configuration not stated) [Aminoglutethimide] reads < 0
reduction in cell viability (M249R) [%] with CC[C@@H]1/C=C/C=C/C[C@H](C)[C@H](O)[C@](C)(O)C(=O)[C@H](C)[C@@H](O)[C@H](C)C(=O)[C@H](C)[C@@H](O)[C@H](C)/C=C/C(=O)O[C@H]2[C@@H](C)[C@@H](CC1)O[C@@]1(CC[C@@H](C)[C@@H](C[C@H](C)O)O1)[C@@H]2C [Oligomycin A] reads 8.63
